In the supplement of paper PMC10849652:
The list shows a part of the results.

Chains of the proteins cited; added tags and fusions are not shown. Lines headed by an entry give the natural chain unless they say otherwise; changes in a name come on top.
UniProt Q8IYB3: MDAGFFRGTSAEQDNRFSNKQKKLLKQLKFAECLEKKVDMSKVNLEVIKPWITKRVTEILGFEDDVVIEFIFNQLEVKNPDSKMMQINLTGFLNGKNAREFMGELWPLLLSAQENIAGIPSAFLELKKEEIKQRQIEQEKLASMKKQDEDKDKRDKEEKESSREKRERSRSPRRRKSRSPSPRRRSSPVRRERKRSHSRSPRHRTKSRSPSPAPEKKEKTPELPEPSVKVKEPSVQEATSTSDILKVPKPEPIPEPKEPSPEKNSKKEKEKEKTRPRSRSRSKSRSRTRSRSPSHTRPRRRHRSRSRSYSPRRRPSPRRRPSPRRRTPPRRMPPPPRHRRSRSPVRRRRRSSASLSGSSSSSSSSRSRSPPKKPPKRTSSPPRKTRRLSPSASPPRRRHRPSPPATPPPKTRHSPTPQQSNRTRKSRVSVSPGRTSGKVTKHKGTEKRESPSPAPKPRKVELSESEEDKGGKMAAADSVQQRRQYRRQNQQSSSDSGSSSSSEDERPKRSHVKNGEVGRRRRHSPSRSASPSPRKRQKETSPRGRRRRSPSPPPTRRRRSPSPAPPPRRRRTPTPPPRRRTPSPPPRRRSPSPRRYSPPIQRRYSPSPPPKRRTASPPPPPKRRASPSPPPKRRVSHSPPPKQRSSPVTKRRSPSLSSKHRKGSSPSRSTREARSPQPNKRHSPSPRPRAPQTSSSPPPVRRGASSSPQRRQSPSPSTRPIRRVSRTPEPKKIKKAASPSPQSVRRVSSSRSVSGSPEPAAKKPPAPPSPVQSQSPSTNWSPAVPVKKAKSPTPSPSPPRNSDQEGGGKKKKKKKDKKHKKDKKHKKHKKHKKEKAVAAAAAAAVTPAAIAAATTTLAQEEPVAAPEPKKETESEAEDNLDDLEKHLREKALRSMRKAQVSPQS
UniProt Q9BYN0: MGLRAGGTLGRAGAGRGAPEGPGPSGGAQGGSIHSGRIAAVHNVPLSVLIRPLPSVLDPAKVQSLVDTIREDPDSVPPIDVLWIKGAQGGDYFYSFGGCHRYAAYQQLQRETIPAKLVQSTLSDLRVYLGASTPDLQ
UniProt P78362, whole entry, looked up: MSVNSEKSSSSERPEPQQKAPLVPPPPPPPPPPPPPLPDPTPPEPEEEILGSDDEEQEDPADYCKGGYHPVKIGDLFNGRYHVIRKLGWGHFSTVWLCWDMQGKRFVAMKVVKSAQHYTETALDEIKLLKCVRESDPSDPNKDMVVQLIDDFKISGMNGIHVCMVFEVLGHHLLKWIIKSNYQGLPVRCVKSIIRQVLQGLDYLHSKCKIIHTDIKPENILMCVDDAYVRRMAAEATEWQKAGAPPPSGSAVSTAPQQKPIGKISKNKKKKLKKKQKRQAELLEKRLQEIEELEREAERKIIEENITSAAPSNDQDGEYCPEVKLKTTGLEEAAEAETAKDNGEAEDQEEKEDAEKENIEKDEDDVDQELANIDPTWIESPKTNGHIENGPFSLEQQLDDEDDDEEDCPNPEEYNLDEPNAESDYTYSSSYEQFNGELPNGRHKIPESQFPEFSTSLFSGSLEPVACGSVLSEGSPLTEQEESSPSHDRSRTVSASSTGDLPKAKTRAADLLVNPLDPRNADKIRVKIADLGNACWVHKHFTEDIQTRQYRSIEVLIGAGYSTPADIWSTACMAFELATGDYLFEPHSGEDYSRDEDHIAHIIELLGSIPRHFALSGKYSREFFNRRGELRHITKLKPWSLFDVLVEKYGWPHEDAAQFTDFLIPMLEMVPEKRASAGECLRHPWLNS
UniProt Q12772: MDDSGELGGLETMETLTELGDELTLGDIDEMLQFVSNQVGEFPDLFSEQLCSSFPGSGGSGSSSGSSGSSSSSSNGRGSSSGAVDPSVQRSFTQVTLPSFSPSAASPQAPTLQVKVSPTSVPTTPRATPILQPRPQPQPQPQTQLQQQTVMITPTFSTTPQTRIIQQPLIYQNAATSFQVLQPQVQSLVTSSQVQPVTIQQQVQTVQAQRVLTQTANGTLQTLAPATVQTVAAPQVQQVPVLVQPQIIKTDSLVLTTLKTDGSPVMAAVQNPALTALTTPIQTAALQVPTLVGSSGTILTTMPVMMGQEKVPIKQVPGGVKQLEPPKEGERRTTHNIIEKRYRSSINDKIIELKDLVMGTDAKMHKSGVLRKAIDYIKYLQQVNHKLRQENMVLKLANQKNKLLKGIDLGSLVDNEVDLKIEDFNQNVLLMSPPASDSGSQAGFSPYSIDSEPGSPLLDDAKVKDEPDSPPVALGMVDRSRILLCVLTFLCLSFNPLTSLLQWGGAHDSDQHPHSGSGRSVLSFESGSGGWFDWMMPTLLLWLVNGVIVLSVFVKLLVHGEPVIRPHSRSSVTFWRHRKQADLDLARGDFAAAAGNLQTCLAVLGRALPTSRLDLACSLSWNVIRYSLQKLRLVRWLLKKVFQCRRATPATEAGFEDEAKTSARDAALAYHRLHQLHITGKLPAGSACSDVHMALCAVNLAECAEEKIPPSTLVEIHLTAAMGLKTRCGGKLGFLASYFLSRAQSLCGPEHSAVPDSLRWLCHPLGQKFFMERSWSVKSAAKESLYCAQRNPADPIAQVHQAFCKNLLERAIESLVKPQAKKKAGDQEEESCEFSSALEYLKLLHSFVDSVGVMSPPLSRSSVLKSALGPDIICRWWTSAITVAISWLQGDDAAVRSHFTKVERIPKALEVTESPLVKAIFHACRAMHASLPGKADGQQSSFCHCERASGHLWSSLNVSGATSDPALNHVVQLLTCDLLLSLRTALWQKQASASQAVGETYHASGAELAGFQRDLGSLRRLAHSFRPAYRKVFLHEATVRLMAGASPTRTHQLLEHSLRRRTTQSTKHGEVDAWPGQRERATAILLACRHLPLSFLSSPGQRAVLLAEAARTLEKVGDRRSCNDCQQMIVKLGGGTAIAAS
UniProt Q9H2V7: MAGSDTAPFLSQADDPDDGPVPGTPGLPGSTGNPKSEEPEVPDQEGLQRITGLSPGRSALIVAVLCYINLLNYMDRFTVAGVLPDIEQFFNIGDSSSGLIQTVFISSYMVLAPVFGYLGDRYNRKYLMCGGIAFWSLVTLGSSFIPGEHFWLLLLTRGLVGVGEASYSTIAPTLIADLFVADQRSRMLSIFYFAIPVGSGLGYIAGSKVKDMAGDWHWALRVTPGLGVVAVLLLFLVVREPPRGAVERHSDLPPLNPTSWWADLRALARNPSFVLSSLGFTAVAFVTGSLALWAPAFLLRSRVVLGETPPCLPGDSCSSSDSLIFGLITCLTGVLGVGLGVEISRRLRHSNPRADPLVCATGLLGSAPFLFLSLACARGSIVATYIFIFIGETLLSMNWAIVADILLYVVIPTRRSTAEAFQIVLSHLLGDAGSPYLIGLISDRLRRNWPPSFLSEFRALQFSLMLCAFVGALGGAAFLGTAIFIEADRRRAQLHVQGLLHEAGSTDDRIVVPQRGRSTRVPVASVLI
UniProt P49458: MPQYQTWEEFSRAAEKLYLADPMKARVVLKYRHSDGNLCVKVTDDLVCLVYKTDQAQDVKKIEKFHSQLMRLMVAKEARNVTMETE
UniProt Q9UBP0: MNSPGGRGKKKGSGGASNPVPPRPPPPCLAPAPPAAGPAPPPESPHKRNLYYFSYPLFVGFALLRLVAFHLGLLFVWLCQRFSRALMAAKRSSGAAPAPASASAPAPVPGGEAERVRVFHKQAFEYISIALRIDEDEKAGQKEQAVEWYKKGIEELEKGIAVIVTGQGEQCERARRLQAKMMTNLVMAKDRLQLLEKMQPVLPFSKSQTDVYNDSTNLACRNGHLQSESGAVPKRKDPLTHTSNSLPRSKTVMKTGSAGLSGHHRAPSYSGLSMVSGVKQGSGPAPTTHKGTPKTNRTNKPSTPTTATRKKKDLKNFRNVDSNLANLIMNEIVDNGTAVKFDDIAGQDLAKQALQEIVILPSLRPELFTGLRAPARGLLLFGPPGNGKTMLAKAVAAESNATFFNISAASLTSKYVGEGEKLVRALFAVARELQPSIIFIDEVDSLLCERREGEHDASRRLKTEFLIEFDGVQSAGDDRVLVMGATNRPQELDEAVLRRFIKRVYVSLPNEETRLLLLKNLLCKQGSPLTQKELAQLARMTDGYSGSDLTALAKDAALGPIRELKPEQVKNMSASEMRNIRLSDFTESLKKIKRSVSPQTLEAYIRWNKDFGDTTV
UniProt Q13242, whole entry, looked up: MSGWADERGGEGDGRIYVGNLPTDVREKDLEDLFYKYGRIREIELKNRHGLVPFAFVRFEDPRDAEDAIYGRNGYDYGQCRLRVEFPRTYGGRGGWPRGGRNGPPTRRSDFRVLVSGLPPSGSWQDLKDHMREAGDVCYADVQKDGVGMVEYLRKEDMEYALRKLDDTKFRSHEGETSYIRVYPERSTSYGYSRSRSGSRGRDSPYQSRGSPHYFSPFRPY

What was measured:
Test in all cases: log2 fold change, soluble protein after heating vs DMSO (PISA); higher = thermal stabilisation; K562 lysate, 10 uM; active = over 0.2 and 3.5 SD of the protein, either way, in both replicates (recomputed)
erlotinib = compound: C#Cc1cccc(Nc2ncnc3cc(OCCOC)c(OCCOC)cc23)c1 [erlotinib]
How it was run: (§1)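 K562 pellets were dounce-homogenised in PBS pH 7.4 with 1 mM MgCl2, and the crude extract at 1 mg/mL protein was treated with 10 μM compound for 30 min. Aliquots were heated for 3 min across 48°C-58°C, pooled, and brought to 0.5% NP-40 at 4°C; soluble protein was the supernatant after 21,000xg for 90 min. Soluble protein was quantified by TMTpro 16plex LC-MS/MS with channel sums equalised, and reported as log2 fold change in thermal stability against DMSO controls, with values from duplicates.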

[1] = compound: C/C(=N\NC(=O)C1=CC(=CC=C1)S(=O)(=O)N2CCOCC2)/C3=C(C=CC(=C3)Cl)O
How it was run: as §1

[2] = compound: C1=CC(=CC=C1C2=NC3=C(N2)C=C(C=C3)C(=O)N)OC4=CC=C(C=C4)Cl
How it was run: as §1

[3] = compound: C1=CC2=C(C=CC(=C2)/C=C\3/C(=O)NC(=NCC4=CC=CS4)S3)N=C1
How it was run: as §1

[4] = compound: C1=CC2=NC=CN=C2C=C1/C=C/3\C(=O)NC(=O)S3
How it was run: as §1

[5] = compound: C1=CC=C(C=C1)C2=NC(=C(N2)C3=CC=NC=C3)C4=CC(=C(C=C4)Cl)O
How it was run: as §1

[6] = compound: C1=CC=C2C(=C1)C3=NNC4=CC=CC(=C43)C2=O
How it was run: as §1

[7] = compound: C1CCN(C1)C(=O)NC2=CC=CC(=C2)NC3=NC=C(C(=N3)NCCC4=CN=CN4)Br
How it was run: as §1

[8] = compound: C1CN(CCC1(CC2=CC=C(C=C2)Cl)N)C3=NC=NC4=C3C=CN4
How it was run: as §1

IRAK-1-4 Inhibitor I = compound: C1COCCN1CCN2C3=CC=CC=C3N=C2NC(=O)C4=CC(=CC=C4)[N+](=O)[O-] [IRAK-1-4 Inhibitor I]
How it was run: as §1

ibrutinib = compound: C=CC(=O)N1CCC[C@@H](n2nc(-c3ccc(Oc4ccccc4)cc3)c3c(N)ncnc32)C1 [ibrutinib]
How it was run: as §1

[9] = compound: CC(=O)c1cnc2ccc(-c3cc(Cl)c(O)c(Cl)c3)nc2c1N[C@H]1CC[C@H](CN(C)C)CC1
How it was run: as §1

ralimetinib = compound: CC(C)(C)Cn1c(N)nc2ccc(-c3[nH]c(C(C)(C)C)nc3-c3ccc(F)cc3)nc21 [ralimetinib]
How it was run: as §1

[10] = compound: CC(C)(O)CC(=O)NCCn1ccc2ncnc(Nc3ccc(Oc4cccc(C(F)(F)F)c4)c(Cl)c3)c21
How it was run: as §1

[11] = compound: CC(C)C1=C2N=C(C=C(N2N=C1)NCC3=CC=CC=C3)NCCCCCCN
How it was run: as §1

[12] = compound: CC1=C(C(CC(=O)N1)C2=CC=C(C=C2)C(F)(F)F)C(=O)NC3=C(C=C4C(=C3)C=NN4)F
How it was run: as §1

[13] = compound: CC1=C(C2=C(C=C1)C(=O)C3=CC=CC=C3N2CCCN)C
How it was run: as §1

[14] = compound: CC1=C(C=C(C=C1)NC(=O)C2=CC(=CC=C2)C(C)(C)C#N)NC3=CC4=C(C=C3)N=CN(C4=O)C
How it was run: as §1

[15] = compound: CC1=C(C=C(C=C1)NC(=O)C2=CC(=CC=C2)N(C)C)NC(=O)C3=CC=C(C=C3)O
How it was run: as §1

[16] = compound: CC1=CC=C(C=C1)SC2=C3C=C(SC3=CN=C2)C(=O)N
How it was run: as §1

Target | log2 fold change (erlotinib) | log2 fold change [1] | log2 fold change [2] | log2 fold change [3] | log2 fold change [4] | log2 fold change [5] | log2 fold change [6] | log2 fold change [7] | log2 fold change [8] | log2 fold change (IRAK-1-4 Inhibitor I) | log2 fold change (ibrutinib) | log2 fold change [9] | log2 fold change (ralimetinib) | log2 fold change [10] | log2 fold change [11] | log2 fold change [12] | log2 fold change [13] | log2 fold change [14] | log2 fold change [15] | log2 fold change [16]
SRRM1 (UniProt Q8IYB3) | inactive: 0.015 | inactive: -0.053 | inactive: -0.058 | inactive: 0.061 | inactive: -0.062 | inactive: 0.002 | inactive: 0.036 | inactive: 0.04 | inactive: -0.01 | inactive: -0.01 | inactive: 0.008 | inactive: -0.022 | inactive: -0.016 | inactive: -0.019 | inactive: 0.02 | inactive: -0.007 | inactive: -0.035 | inactive: 0 | inactive: 0 | inactive: 0.029
SRXN1 (UniProt Q9BYN0) | inactive: 0.005 | inactive: -0.013 | inactive: 0.057 | inactive: -0.242 | inactive: -0.028 | inactive: -0.025 | inactive: -0.074 | inactive: -0.094 | inactive: 0.071 | inactive: -0.01 | inactive: 0.053 | inactive: -0.032 | inactive: 0.067 | inactive: -0.065 | inactive: 0.03 | inactive: -0.074 | inactive: -0.015 | inactive: 0.08 | inactive: -0.006 | inactive: -0.032
SRPK2 isoform 2 (UniProt P78362) | inactive: -0.053 | inactive: -0.062 | inactive: 0.13 | inactive: -0.017 | inactive: 0.001 | inactive: 0 | inactive: 0.045 | inactive: -0.035 | inactive: -0.049 | inactive: -0.001 | inactive: -0.021 | inactive: -0.009 | inactive: 0.01 | inactive: -0.016 | inactive: -0.026 | inactive: -0.007 | inactive: -0.014 | inactive: 0 | inactive: -0.022 | inactive: 0.003
SREBF2 (UniProt Q12772) | inactive: 0.025 | inactive: 0.131 | inactive: -0.047 | inactive: -0.075 | inactive: -0.008 | inactive: 0.014 | inactive: -0.081 | inactive: -0.048 | inactive: 0.215 | inactive: -0.036 | inactive: -0.003 | inactive: 0.004 | inactive: -0.014 | inactive: -0.026 | inactive: 0.004 | inactive: -0.038 | inactive: 0.093 | inactive: 0.16 | inactive: -0.051 | inactive: -0.027
SPNS1 (UniProt Q9H2V7) | inactive: 0.015 | inactive: -0.043 | inactive: -0.02 | inactive: 0.043 | inactive: -0.031 | inactive: 0.029 | inactive: -0.063 | inactive: 0 | inactive: 0.044 | inactive: 0.032 | inactive: 0.02 | inactive: -0.001 | inactive: 0.005 | inactive: -0.009 | inactive: 0.007 | inactive: -0.009 | inactive: -0.007 | inactive: 0.047 | inactive: -0.029 | inactive: 0.012
SRP9 (UniProt P49458) | inactive: -0.034 | inactive: 0.013 | inactive: 0.021 | inactive: 0.004 | inactive: -0.002 | inactive: -0.008 | inactive: 0.038 | inactive: 0.015 | inactive: -0.007 | inactive: 0 | inactive: -0.011 | inactive: -0.007 | inactive: -0.011 | inactive: 0.014 | inactive: 0.033 | inactive: 0.016 | inactive: -0.014 | inactive: -0.031 | inactive: -0.001 | inactive: 0.008
SPAST (UniProt Q9UBP0) | inactive: 0.037 | inactive: -0.075 | inactive: 0.065 | inactive: 0.046 | inactive: -0.005 | inactive: 0.009 | inactive: -0.003 | inactive: -0.043 | inactive: 0.059 | inactive: 0.024 | inactive: 0.003 | inactive: 0.01 | inactive: 0.005 | inactive: -0.017 | inactive: 0.008 | inactive: 0.035 | inactive: -0.005 | inactive: -0.011 | inactive: 0.036 | inactive: -0.015
SRSF9 (UniProt Q13242) | inactive: 0.027 | active: 0.263 | inactive: 0.007 | inactive: 0.077 | inactive: 0.052 | inactive: -0.01 | inactive: 0.097 | inactive: 0.072 | inactive: 0.007 | inactive: 0.012 | inactive: -0.009 | inactive: -0.009 | inactive: 0.001 | inactive: -0.031 | inactive: -0.031 | inactive: -0.019 | inactive: -0.089 | inactive: 0.047 | inactive: -0.028 | inactive: -0.007
